From the supplement of paper PMC8256030
“And” between values parts separate entries of the source, which are not always exact repeats. Equal values may be shown once. The list shows a part of the results. Single values are uncertain here, since repeats match poorly.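 HEK293T cells were given each compound shortly before transfection with a reporter in which red mCherry is followed by the SARS-CoV-2 frameshift element and then GFP in the −1 frame, so GFP appears only after frameshifting.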

Columns and labels:
[1] = test system: SARS-CoV-2 -1 PRF reporter mCherry-FSE-GFP(-1); assay: mCherry (red) intensity as percent of control; higher = higher upstream reporter expression; details: 10 µM; 24 h; HEK293T
[2] = test system: SARS-CoV-2 -1 PRF reporter mCherry-FSE-GFP(-1); assay: percent effect, decrease of GFP/mCherry ratio (-1 PRF reporter) relative to controls; higher = stronger frameshift inhibition; details: 10 µM; 24 h; HEK293T

CC[C@@]1(O)C(=O)OCc2c1cc1n(c2=O)Cc2cc3cc(O)ccc3nc2-1 [10-Hydroxycamptothecin]
mCherry [1]: 43.6% | percent effect [2]: 4.94%

CCN(CC)CCCN(c1ccccc1)C1Cc2ccccc2C1 [aprindine]
mCherry [1]: 111% | percent effect [2]: -9.09%

CCc1cccc(CC)c1NC(=O)CN(CC(=O)O)CC(=O)O [etifenin]
mCherry [1]: 94.8% | percent effect [2]: 2.46%

CC(C)OC(=O)CCC/C=C\C[C@@H]1[C@@H](CC[C@@H](O)CCc2ccccc2)[C@H](O)C[C@@H]1O [Latanoprost]
mCherry [1]: 86.6% and 89% | percent effect [2]: -2.71% and -6.04%

CC[N+](CC)(CC(=O)Nc1c(C)cccc1C)Cc1ccccc1 [denatonium benzoate]
mCherry [1]: 117% | percent effect [2]: -2.78%

CC1=C(/C=C/C(C)=C/C=C/C(C)=C/C(=O)O)C(C)(C)CCC1 [tretinoin]
mCherry [1]: 100% and 99.8% | percent effect [2]: -3.3% and -1.45%

CCCCc1nc(Cl)c(CO)n1Cc1ccc(-c2ccccc2-c2nnn[nH]2)cc1 [losartan]
mCherry [1]: 94.5% | percent effect [2]: -1.09%

CCCCCNCC(N)=O [milacemide]
mCherry [1]: 108% | percent effect [2]: -11.2%

NC[C@@H]1O[C@H](O[C@H]2[C@@H](O)[C@H](O[C@@H]3[C@@H](O)[C@H](N)C[C@H](N)[C@H]3O[C@H]3O[C@H](CN)[C@@H](O)[C@H](O)[C@H]3N)O[C@@H]2CO)[C@H](N)[C@@H](O)[C@@H]1O [neomycin]
mCherry [1]: 98.8% | percent effect [2]: -1.42% and -10.4%

CN1CCCC(n2nc(Cc3ccc(Cl)cc3)c3ccccc3c2=O)CC1 (stereo unspecified)
mCherry [1]: 114% | percent effect [2]: -4.26%

CN(C)C(=O)Cn1cc(-c2ccc(-c3cncc4ccccc34)cc2)cn1
mCherry [1]: 32.9% | percent effect [2]: -1.06%

C[C@]12Cc3c[nH]nc3C[C@@H]1CC[C@@H]1[C@@H]2CC[C@@]2(C)[C@H]1CC[C@]2(C)O [Stanozolol]
mCherry [1]: 87.3% and 96% | percent effect [2]: -2.77% and 1.48%

Cc1ccnc(NC(=O)C(C)c2cccc(C(=O)c3ccccc3)c2)c1 (stereo unspecified) [piketoprofen]
mCherry [1]: 102% | percent effect [2]: -9.61%

CCCn1c(=O)c(CCCOC(=O)NC)nc2ccccc21 [bamaquimast]
mCherry [1]: 101% | percent effect [2]: -1.76%

FCOC(C(F)(F)F)C(F)(F)F [sevoflurane]
mCherry [1]: 99.8% | percent effect [2]: -5.83%

CC(C)(C)NCC(O)COc1ccccc1C#N (stereo unspecified) [bunitrolol]
mCherry [1]: 71.6% | percent effect [2]: 0.557%

CN1CCC(=C2c3ccccc3CCc3cccnc32)CC1 [azatadine]
mCherry [1]: 108% | percent effect [2]: 2.45%

CC(=O)OCC1=C(C(=O)O)N2C(=O)[C@@H](NC(=O)CC#N)[C@H]2SC1 [Celospor]
mCherry [1]: 98.6% | percent effect [2]: -1.45%

O=S(O)CNc1ccc(S(=O)(=O)c2ccc(NCS(=O)O)cc2)cc1 [aldesulfone]
mCherry [1]: 70.4% | percent effect [2]: -2.42%

O=C(O)c1ccc(-n2nc(-c3ccccc3O)nc2-c2ccccc2O)cc1 [deferasirox]
mCherry [1]: 99.2% | percent effect [2]: -7.33%

CCOc1ccc(S(=O)(=O)O)c2cccnc12 [actinoquinol]
mCherry [1]: 91.3% | percent effect [2]: -7.67%

CC(=O)[C@H]1CC[C@H]2[C@@H]3CC=C4C[C@@H](OC(=O)CCC(=O)O)CC[C@]4(C)[C@H]3CC[C@]12C
mCherry [1]: 129% | percent effect [2]: 1.03%

COc1nc(C)nc(Cl)c1NC1=NCCN1 [moxonidine]
mCherry [1]: 90.6% | percent effect [2]: -6.95%

CC(=O)OCC(=O)[C@@]1(O)CC[C@H]2[C@@H]3CCC4=CC(=O)C=C[C@]4(C)[C@@]3(F)[C@@H](O)C[C@@]21C
mCherry [1]: 123% | percent effect [2]: 1.49%

CC(C)(C)NCC(O)c1ccc(O)c(CO)c1 (stereo unspecified) [salbutamol]
mCherry [1]: 87.6% and 90.5% | percent effect [2]: 6.06% and -5.26%

CCCCC/C=C\C/C=C\C/C=C\CCCCCCC(=O)O
mCherry [1]: 110% | percent effect [2]: -0.966%

CCN(CC)C(=O)c1cccc(C)c1 [diethyltoluamide]
mCherry [1]: 85% | percent effect [2]: -8.72%

CC1=C(/C=C/C(C)=C/C=C/C(C)=C/CO)C(C)(C)CCC1
mCherry [1]: 112% | percent effect [2]: 0.083%

NC(=O)NC(=O)C(Oc1ccc(Cl)cc1)Oc1ccc(Cl)cc1 [urefibrate]
mCherry [1]: 64.9% | percent effect [2]: -12.4%

C[C@H](O)[C@H](O)[C@H]1CNc2nc(N)[nH]c(=O)c2N1 [Tetrahydrobiopterin]
mCherry [1]: 112% | percent effect [2]: 4.98%

CC[C@H]1OC(=O)[C@H](C)[C@@H](O[C@H]2C[C@@](C)(OC)[C@@H](O)[C@H](C)O2)[C@H](C)[C@@H](O[C@@H]2O[C@H](C)C[C@H](N(C)C)[C@H]2O)[C@](C)(O)C[C@@H](C)CN(C)[C@H](C)[C@@H](O)[C@]1(C)O [Azithromycin]
mCherry [1]: 55.8% | percent effect [2]: -1.63%

CCc1cccc(N(C)C(=N)Nc2cccc3ccccc23)c1 [aptiganel]
mCherry [1]: 87.8% | percent effect [2]: 1.71%

Nc1nc(=O)n([C@H]2C[C@H](O)[C@@H](CO)O2)cc1I [ibacitabine]
mCherry [1]: 114% | percent effect [2]: 2.68%
